Data as given in PubChem BioAssay AID1259254 (NCATS, 2017)
In all, the deposit lists about 59,000 reagents; this is a random part of them. About 1,550 of all reagents (2.6%) were called active. 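G2 share is only a proxy for re-replication; each gene was hit by three separate siRNAs, and active genes were retested.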 A number with no mark means an inactive call. The numbers tell different reagents against one gene apart. Further read-outs or replicates are left out here. Not stated in the record: the amount of reagent.

Assay: 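Gene knock-downs that lead to re-replication, shown by excess G2 DNA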 (primary screen)
Cell system: human HCT116 colorectal cancer cells
Knock-down reagent: single siRNA against human genes
Timing: 3 days
Measurement: 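Imaged Hoechst DNA stain sorts each cell into a cycle phase by DNA amount; per plate, G2 fraction set to 0% for non-targeting and 100% for GMNN siRNA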
Reading the numbers: G2 robust z-score and G2 cells, % of GMNN control: higher = more G2 cells, more excess DNA replication
Rule for the call: 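Active siRNAs have a G2 robust z of 5 or more median absolute deviations over the median, which in these data means about 38% or higher of GMNN control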

What is on record for ACOXL (GeneID 55289) #1?
G2 robust z-score: 0.766; G2 cells, % of GMNN control: 8.36

For ACOXL (GeneID 55289) #2, what was measured?
G2 robust z-score: -0.392; G2 cells, % of GMNN control: 0.206

What did the screen give for ACOXL (GeneID 55289) #3?
G2 robust z-score: -0.215; G2 cells, % of GMNN control: 1.45

With IFNA21 (GeneID 3452) #1, how do the results read?
G2 robust z-score: 3.67; G2 cells, % of GMNN control: 28.8

For IFNA21 (GeneID 3452) #2, how do the results read?
G2 robust z-score: -0.849; G2 cells, % of GMNN control: -3

Which result is listed for IFNA21 (GeneID 3452) #3?
G2 robust z-score: 6.17 (active); G2 cells, % of GMNN control: 46.4

With MYRIP (GeneID 25924) #1, what was measured?
G2 robust z-score: -0.857; G2 cells, % of GMNN control: -3.06

What is on record for MYRIP (GeneID 25924) #2?
G2 robust z-score: 4.4; G2 cells, % of GMNN control: 34

With MYRIP (GeneID 25924) #3, how do the results read?
G2 robust z-score: 1.22; G2 cells, % of GMNN control: 11.6

For IL3RA (GeneID 3563) #1, what does the deposit list?
G2 robust z-score: 2.26; G2 cells, % of GMNN control: 18.9

Which result is listed for IL3RA (GeneID 3563) #2?
G2 robust z-score: 2.97; G2 cells, % of GMNN control: 23.8

With IL3RA (GeneID 3563) #3, how do the results read?
G2 robust z-score: 0.051; G2 cells, % of GMNN control: 3.33

With SIX4 (GeneID 51804) #1, how do the results read?
G2 robust z-score: -0.311; G2 cells, % of GMNN control: 0.781

What did the screen give for SIX4 (GeneID 51804) #2?
G2 robust z-score: -0.632; G2 cells, % of GMNN control: -1.48

With SIX4 (GeneID 51804) #3, what does the deposit list?
G2 robust z-score: -0.277; G2 cells, % of GMNN control: 1.02

With BAG1 (GeneID 573) #1, how do the results read?
G2 robust z-score: 1.18; G2 cells, % of GMNN control: 11.3

For BAG1 (GeneID 573) #2, how do the results read?
G2 robust z-score: 11.6 (active); G2 cells, % of GMNN control: 84.5

What did the screen give for BAG1 (GeneID 573) #3?
G2 robust z-score: -0.76; G2 cells, % of GMNN control: -2.38

With VBP1 (GeneID 7411) #1, what does the deposit list?
G2 robust z-score: -0.271; G2 cells, % of GMNN control: 1.06

How did the screen score VBP1 (GeneID 7411) #2?
G2 robust z-score: 0.649; G2 cells, % of GMNN control: 7.53

With VBP1 (GeneID 7411) #3, what does the deposit list?
G2 robust z-score: -0.328; G2 cells, % of GMNN control: 0.663

How did the screen score KCNE3 (GeneID 10008) #1?
G2 robust z-score: 3.48; G2 cells, % of GMNN control: 27.5

With KCNE3 (GeneID 10008) #2, what was measured?
G2 robust z-score: 2.68; G2 cells, % of GMNN control: 21.9

With KCNE3 (GeneID 10008) #3, how do the results read?
G2 robust z-score: -0.886; G2 cells, % of GMNN control: -3.27
